Results taken from publication PMC11217351.

By UniProt entry, the sequences of proteins in these tests, tags left out. Where a name states a change or a piece, a line headed by the entry shows the natural chain unless it says otherwise.
UniProt Q32KD2: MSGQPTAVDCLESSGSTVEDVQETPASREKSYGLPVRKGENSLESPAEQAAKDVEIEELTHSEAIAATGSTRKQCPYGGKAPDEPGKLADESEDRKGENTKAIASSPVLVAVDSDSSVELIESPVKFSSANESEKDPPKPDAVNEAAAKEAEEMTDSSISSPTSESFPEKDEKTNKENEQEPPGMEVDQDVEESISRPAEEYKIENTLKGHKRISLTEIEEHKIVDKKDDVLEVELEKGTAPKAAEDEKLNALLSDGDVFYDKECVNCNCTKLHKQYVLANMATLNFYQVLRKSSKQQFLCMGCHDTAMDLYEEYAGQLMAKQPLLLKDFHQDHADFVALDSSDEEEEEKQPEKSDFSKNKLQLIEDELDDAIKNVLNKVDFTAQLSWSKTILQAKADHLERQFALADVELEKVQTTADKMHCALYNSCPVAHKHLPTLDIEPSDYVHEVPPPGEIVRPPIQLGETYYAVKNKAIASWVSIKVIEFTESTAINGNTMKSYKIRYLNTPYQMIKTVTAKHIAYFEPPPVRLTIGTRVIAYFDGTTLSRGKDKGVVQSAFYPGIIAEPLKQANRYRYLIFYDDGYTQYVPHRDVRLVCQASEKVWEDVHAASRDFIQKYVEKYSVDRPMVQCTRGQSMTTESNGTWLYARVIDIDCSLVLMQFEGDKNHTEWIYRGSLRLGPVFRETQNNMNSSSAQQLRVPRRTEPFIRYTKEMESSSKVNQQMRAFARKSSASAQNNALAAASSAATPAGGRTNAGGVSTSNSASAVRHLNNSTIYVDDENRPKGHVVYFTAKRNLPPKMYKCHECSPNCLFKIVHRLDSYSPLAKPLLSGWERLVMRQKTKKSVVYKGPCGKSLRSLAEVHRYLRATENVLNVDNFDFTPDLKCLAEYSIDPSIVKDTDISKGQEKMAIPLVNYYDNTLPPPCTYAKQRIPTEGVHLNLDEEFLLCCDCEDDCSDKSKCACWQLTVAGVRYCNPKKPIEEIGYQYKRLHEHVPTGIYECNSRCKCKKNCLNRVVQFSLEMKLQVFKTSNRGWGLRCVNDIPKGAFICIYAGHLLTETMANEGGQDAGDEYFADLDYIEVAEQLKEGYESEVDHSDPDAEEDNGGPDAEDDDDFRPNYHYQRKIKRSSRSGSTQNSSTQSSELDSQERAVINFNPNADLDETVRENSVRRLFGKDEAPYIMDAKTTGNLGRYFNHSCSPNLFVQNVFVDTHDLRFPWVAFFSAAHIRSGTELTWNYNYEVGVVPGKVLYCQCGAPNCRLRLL
UniProt A0A0B4LF38: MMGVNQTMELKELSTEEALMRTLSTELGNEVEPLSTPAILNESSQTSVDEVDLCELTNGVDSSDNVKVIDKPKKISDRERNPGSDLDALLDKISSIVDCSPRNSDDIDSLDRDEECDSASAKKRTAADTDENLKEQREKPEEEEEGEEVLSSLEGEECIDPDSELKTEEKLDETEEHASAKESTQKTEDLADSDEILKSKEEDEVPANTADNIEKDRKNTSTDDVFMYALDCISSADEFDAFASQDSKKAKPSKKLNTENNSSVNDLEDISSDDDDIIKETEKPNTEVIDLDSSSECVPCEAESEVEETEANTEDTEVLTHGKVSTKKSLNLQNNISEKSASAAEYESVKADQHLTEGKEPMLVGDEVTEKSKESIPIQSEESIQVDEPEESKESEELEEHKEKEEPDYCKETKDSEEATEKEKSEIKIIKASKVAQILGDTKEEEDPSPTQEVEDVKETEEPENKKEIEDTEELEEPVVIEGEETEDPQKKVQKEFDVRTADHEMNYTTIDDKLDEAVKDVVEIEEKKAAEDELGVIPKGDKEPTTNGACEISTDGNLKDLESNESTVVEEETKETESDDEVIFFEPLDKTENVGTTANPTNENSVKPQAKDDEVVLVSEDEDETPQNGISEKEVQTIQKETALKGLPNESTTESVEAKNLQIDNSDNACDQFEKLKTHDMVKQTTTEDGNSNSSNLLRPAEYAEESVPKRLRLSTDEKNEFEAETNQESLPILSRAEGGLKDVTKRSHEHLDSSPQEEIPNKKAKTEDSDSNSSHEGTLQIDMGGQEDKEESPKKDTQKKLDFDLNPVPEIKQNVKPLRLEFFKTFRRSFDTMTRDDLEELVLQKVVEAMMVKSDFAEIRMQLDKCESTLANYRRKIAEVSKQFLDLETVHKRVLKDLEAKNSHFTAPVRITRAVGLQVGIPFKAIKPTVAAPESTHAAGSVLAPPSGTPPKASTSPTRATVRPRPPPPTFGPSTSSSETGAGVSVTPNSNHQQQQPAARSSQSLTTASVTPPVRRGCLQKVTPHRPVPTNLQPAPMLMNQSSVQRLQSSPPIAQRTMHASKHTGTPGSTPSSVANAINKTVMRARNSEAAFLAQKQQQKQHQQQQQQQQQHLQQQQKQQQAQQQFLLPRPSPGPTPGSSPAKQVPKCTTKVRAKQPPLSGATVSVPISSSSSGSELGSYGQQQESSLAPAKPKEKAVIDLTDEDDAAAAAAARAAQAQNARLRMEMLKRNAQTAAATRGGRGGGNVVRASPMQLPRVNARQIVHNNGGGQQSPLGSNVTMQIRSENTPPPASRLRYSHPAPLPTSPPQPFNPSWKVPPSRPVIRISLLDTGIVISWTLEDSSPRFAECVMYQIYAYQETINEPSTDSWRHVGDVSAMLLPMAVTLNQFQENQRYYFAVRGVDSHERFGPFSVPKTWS

Assays:
[1] = biological target: endogenously flag-HA tagged catalytic dead dSetDB1 (Y1236N) (D. melanogaster) (UniProt Q32KD2); test: affinity purification with mass spectrometry; ANTI-FLAG M2 affinity gel on the nuclear soluble fraction of 0-4 h embryos, 4 h at 4 °C, IP buffer (20 mM Tris-HCl pH 7.5, 150 mM KCl, 5 mM MgCl2, 10% glycerol, 0.05% NP-40, 0.1% Tween-20), eluted with flag peptide; enrichment over ctr embryos, three biological replicates
[2] = biological target: endogenously flag-HA tagged wild-type dSetDB1 (D. melanogaster) (UniProt Q32KD2); test: as above

Substance: Windei (Wde) (from UniProt A0A0B4LF38)
- binding [1]: binds
- binding [2]: binds

Results are given in words; binding and its absence hold for the method and conditions named. In cells and extracts the contact can be indirect. Here binding means that the protein was enriched with, or labelled near, the bait; the list need not be complete.
